The target in the assay is endogenous HIF-1α of TRAMP-C cells (mouse) (UniProt Q61221). Nature of the assay: immunoprecipitation of endogenous HIF-1α from TRAMP-C cells under hypoxia, immunoblot (FIG. 3F). (In western blotting, separated proteins are transferred to a membrane and probed.)

Sequences of proteins named here, by UniProt entry; tags and fusion partners are left off.
UniProt Q61221: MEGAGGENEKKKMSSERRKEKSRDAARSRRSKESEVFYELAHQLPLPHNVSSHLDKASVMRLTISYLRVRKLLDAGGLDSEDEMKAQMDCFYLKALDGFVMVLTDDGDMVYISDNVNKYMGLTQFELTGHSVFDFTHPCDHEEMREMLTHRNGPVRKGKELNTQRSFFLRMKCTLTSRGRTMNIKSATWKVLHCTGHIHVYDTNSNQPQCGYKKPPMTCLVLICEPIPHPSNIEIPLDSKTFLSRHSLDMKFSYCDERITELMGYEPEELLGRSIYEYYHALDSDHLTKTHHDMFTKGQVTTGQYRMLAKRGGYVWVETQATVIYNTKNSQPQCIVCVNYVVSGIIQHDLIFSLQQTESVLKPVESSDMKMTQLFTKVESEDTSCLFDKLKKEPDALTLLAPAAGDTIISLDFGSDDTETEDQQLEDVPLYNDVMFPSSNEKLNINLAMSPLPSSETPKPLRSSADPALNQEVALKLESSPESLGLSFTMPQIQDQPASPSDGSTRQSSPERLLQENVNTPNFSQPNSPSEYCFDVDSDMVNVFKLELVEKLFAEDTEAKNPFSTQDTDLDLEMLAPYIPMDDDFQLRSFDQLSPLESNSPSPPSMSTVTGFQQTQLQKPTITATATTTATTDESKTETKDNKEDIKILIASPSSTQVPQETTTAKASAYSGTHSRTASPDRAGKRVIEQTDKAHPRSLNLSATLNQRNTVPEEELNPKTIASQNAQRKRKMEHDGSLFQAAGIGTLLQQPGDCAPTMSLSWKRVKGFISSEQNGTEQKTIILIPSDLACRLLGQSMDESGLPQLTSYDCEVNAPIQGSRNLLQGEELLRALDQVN

Results are given in words; binding and its absence hold for the method and conditions named. Some entries that bind do so weakly or less than the wild type.

B1: endogenous FoxA2 of TRAMP-C cells (protein, mouse, UniProt P35583 1-459, looked up)
chain: MLGAVKMEGHEPSDWSSYYAEPEGYSSVSNMNAGLGMNGMNTYMSMSAAAMGGGSGNMSAGSMNMSSYVGAGMSPSLAGMSPGAGAMAGMSGSAGAAGVAGMGPHLSPSLSPLGGQAAGAMGGLAPYANMNSMSPMYGQAGLSRARDPKTYRRSYTHAKPPYSYISLITMAIQQSPNKMLTLSEIYQWIMDLFPFYRQNQQRWQNSIRHSLSFNDCFLKVPRSPDKPGKGSFWTLHPDSGNMFENGCYLRRQKRFKCEKQLALKEAAGAASSGGKKTAPGSQASQAQLGEAAGSASETPAGTESPHSSASPCQEHKRGGLSELKGAPASALSPPEPAPSPGQQQQAAAHLLGPPHHPGLPPEAHLKPEHHYAFNHPFSINNLMSSEQQHHHSHHHHQPHKMDLKAYEQVMHYPGGYGSPMPGSLAMGPVTNKAGLDASPLAADTSYYQGVYSRPIMNSS
For B1, the binding result is reported as “binds”.
